PubChem BioAssay AID540303 (National Center for Advancing Translational Sciences (NCATS), 2011)
Out of some 330,000 compounds screened, about 1,000 (0.3%) were called active. The shares of active, inactive and inconclusive entries below differ from those in the screen. The call rests on the fitted dose curve; in most records, active means well fitted inhibition curve with a large enough effect; inconclusive means small, poorly fitted or top-dose-only effect; inactive means no such curve, though single readings can be large or run the other way; tested in mouse RAW 264.7 cells. Potencies beside an inconclusive call are fits to weak or partial responses and may not hold up.

Assay: qHTS for Inhibitors of Cell Surface uPA Generation; further: nearly all actives have a fitted effect of over 55% in size
Details: cell surface uPA generation assay; series mostly up to 38.3 µM
How it was run: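 Intracellular ATP by ATPlite luminescence serves as read-out: inhibited cell-surface uPA generation prevents LF translocation, preserving ATP. Murine RAW 264.7 macrophages were treated 24 h at 37 C with five-fold serial dilutions, up to 38.3 uM final.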
Potency means the concentration at half of the fitted maximal effect.

| Compound | Potency |
| --- | --- |
| c1cn2c(Nc3ccc4c(c3)OCCO4)c(-c3ccc(N4CCOCC4)cc3)nc2cn1 | inconclusive: 4.47 µM [inhibitor, partial curve, poor fit] |
| CNC(C)C#Cc1ccc2oc3cc(C)c(C)cc3c(=O)c2c1 (centres undefined) | inconclusive: 20 µM [inhibitor, single point] |
| Cc1ccccc1[C@@]1(C)ON(c2ccccc2C(F)(F)F)C1=O | inconclusive: 12.6 µM [inhibitor, single point] |
| COc1ccc(/C(N)=N/OC(=O)c2cccs2)cc1 | inconclusive: 6.31 µM [inhibitor, partial curve, poor fit] |
| C=C(C)C(=O)Oc1ccc(N2C(=O)CCC2=O)cc1 | inconclusive: 11.2 µM [inhibitor, partial curve, poor fit] |
| Cc1ccc2nc(/C(C#N)=C\c3ccc([N+](=O)[O-])o3)[nH]c2c1 | inconclusive: 0.0316 µM [inhibitor, full curve, poor fit] |
| COC(=O)c1cc2c(ccn2-c2ccc(F)cc2)n1Cc1ccc(C#N)cc1 | inactive |
| CN(Cc1ccccc1)c1nc2nonc2nc1N1CCCC(CN2CCCC2=O)C1 (centres undefined) | inconclusive: 2.82 µM [inhibitor, single point] |
| O=[N+]([O-])c1ccc(N/N=C/c2sc(N3CCOCC3)nc2-c2ccccc2)c(S(=O)(=O)Nc2ccc(Cl)cc2)c1 | inconclusive: 1.12 µM [inhibitor, partial curve, poor fit] |
| Cc1onc(-c2ccccc2)c1C(=O)N(Cc1ccccc1)C(C)C | inactive |
| COc1ccc(Nc2nc(N3CCCC3)nc3ccccc23)c(OC)c1 | inconclusive: 10 µM [inhibitor, partial curve, poor fit] |
| COc1ccccc1-c1c(C)nn2c(N3CCC4(CC3)OCCO4)cc(C)nc12 | inactive |
| Cc1cc(Sc2nnc(/N=C/N(C)C)s2)c2ccccc2n1 | inconclusive: 1 µM [inhibitor, full curve, poor fit] |
| CCOC(=O)c1cc2c(=O)n3ccccc3nc2n(CC(C)C)c1=NC(=O)c1ccco1 | inactive |
| CCCCOC(=O)c1[nH]c2c(c1C)C(=O)CC(c1cc(OC)c(OC)c(OC)c1)C2 (centres undefined) | inconclusive: 10 µM [inhibitor, single point] |
| O=C(NCc1cccnc1)/C(=C\c1ccc(-c2ccc(Cl)c(Cl)c2)o1)S(=O)(=O)c1ccccc1 | active: 10 µM |
| COc1cccc(C2=NOC(C(=O)Nc3cc(C)nn3-c3ccccc3)C2)c1OC (centres undefined) | inconclusive: 7.08 µM [inhibitor, partial curve, poor fit] |
| COc1cccc(C(=O)O/N=C(\N)c2ccccn2)c1 | inconclusive: 10 µM [inhibitor, partial curve, poor fit] |
| COc1cccc(/C=C2\SC(=S)N(CCCC(=O)N3CCCCC3CCO)C2=O)c1 (centres undefined) | inactive |
| O=C(O)c1ccc(-n2cc(C(=O)c3ccccc3O)cn2)cc1 | inactive |
| O=C(O)COn1c(-c2ccc(Cl)cc2)nc2ccc(Cl)cc21 | inactive |
| Cn1cc(/C=C(\C#N)C(=O)Nc2ncc(Cc3ccc(Cl)cc3)s2)c2ccccc21 | inactive |

| Compound | Potency |
| --- | --- |
| Cc1ccc(N(Cc2ccccc2)C(=O)c2ccc(Cl)c(S(=O)(=O)N3CCOCC3)c2)cc1 | inconclusive: 10 µM [inhibitor, single point] |
| Cc1ccc(OCCn2c(C3CC(=O)N(Cc4ccccc4)C3)nc3ccccc32)cc1 (centres undefined) | inconclusive: 7.08 µM [inhibitor, single point] |
| Cc1ccc(NCC(=O)N/N=C\C(Br)=C\c2ccccc2)cc1 | inconclusive: 12.6 µM [inhibitor, single point] |
| Fc1ccccc1C1CC(c2ccco2)=Nc2ccccc2S1 (centres undefined) | inconclusive: 10 µM [inhibitor, partial curve] |
| Cc1[nH]n(-c2ccccc2)c(=O)c1/C=N/NC(=O)c1ccccc1F | inconclusive: 7.08 µM [inhibitor, single point] |
| COc1ccc(C)cc1NC(=O)CNC(c1ccccc1)c1ccc(C)cc1 (centres undefined) | active: 1.78 µM |
| COc1ccc(-c2nc3ccccc3s2)cc1 | active: 3.55 µM |
| Oc1ccccc1-c1nnc(COc2ccccc2)o1 | inactive |
| COc1cccc(Nc2ccc(C(=O)O)cc2[N+](=O)[O-])c1 | inconclusive: 0.0126 µM [inhibitor, full curve, poor fit] |
| CCn1c(N)c(C(=O)NCc2ccc3c(c2)OCO3)sc1=S | inactive |
| CC(C)n1c(C(=O)OCC(=O)NCc2ccc3c(c2)OCO3)cc2sccc21 | inconclusive: 28.2 µM [inhibitor, single point] |
| O=C(NCc1ccccc1)Nc1cccn(Cc2ccccc2F)c1=O | inconclusive: 31.6 µM [inhibitor, single point] |
| CN(C)c1ccc(/C=C/C#N)cc1 | inactive |
| Cc1ccccc1C(=O)Nc1cccc(C(=O)N/N=C/c2cc(Cl)cc([N+](=O)[O-])c2O)c1 | inconclusive: 12.6 µM [inhibitor, single point] |
| CC(C)(C)c1ccc(Cn2cnc(-c3ccc([N+](=O)[O-])cc3)c2)cc1 | inconclusive: 28.2 µM [inhibitor, single point] |
| CC(/C=N/NC(=O)c1cc(-c2ccc(C)o2)[nH]n1)=C\c1ccccc1 | inconclusive: 28.2 µM [inhibitor, single point] |
| O=C(CCCc1c[nH]c2ccccc12)NCc1cccs1 | inconclusive: 0.0316 µM [inhibitor, full curve, poor fit] |
| CCCOc1ccc(/C=c2\sc3nc(-c4ccco4)nn3c2=O)cc1OCC | inactive |
| Cc1cc(C)c2sc(N(CCCN(C)C)C(=O)c3ccc(S(=O)(=O)N4CCCc5ccccc54)cc3)nc2c1 | inconclusive: 11.2 µM [inhibitor, partial curve, poor fit] |
| Cn1ccnc1SCC(=O)Nc1cccc2ccccc12 | inactive |
| O=C(Nc1nc2ccccc2s1)c1ccc(Cl)s1 | inconclusive: 11.2 µM [inhibitor, single point] |
| CC(C)C(=O)N1CCN(C2=NS(=O)(=O)c3ccccc32)CC1 | inactive |

Reformatted comma-delimited: 2 of the compounds above
Compound,Potency
Cn1cc(/C=C(\C#N)C(=O)Nc2ncc(Cc3ccc(Cl)cc3)s2)c2ccccc21,inactive
Cc1ccc(N(Cc2ccccc2)C(=O)c2ccc(Cl)c(S(=O)(=O)N3CCOCC3)c2)cc1,"inconclusive: 10 µM [inhibitor, single point]"
